# Data taken from the supplement of paper PMC3334620.
# Whole data set: some 33,000 sequences, median “E-score (-0.5 to 0.5)” near -0.0014, cut for the highest 2% near 0.25. This is one part of the list.
# Molecular target: T1, Cad1 (UniProt P24813)
# T1 sequence: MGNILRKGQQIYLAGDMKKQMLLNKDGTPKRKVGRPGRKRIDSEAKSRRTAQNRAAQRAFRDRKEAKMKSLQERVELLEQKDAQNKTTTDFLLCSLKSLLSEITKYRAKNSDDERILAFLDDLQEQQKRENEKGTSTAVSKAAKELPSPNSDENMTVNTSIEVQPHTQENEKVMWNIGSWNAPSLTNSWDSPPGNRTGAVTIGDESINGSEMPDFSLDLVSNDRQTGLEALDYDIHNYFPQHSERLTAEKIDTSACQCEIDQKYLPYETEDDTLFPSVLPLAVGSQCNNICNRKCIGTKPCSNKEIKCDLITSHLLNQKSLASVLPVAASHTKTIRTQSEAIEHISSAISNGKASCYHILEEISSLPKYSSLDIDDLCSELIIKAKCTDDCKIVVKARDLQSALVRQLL
# Assay: PBM E-score (8-mer binding enrichment) (E-score (-0.5 to 0.5)); higher = stronger / more preferred TF binding
# Details: protein concentration: 100 nM; construct: GST-full length
# Method in brief: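 PURExpress in vitro transcription/translation supplied GST-tagged yeast transcription factors, either full-length or DNA-binding domain. Applied at about 100-200 nM to universal all-10-mer Agilent arrays double-stranded by primer extension, the bound protein was detected with fluorescent anti-GST. E-scores, modified Wilcoxon-Mann-Whitney statistics, were given by the Universal PBM Analysis Suite to ungapped eight-base words pooled with their reverse complements after masliner normalisation.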
row,Sequence,PBM E-score
1,CCGGTGCA,-0.0936
2,AGCTGTAA,-0.0875
3,ATTGAGCC,0.0356
4,CAGTCTCC,-0.109
5,CATAAAGG,-0.0983
6,CAGTTTGC,0.0526
7,CCTCCTAA,-0.104
8,ATAAAAAC,0.23
9,CACCAGGC,-0.0805
10,GATAGACC,0.0367
11,TAAGTAGA,0.0408
12,TATAAGGA,0.0915
13,CACCTAAG,0.045
14,GGATATAC,0.0894
15,CATTCCGC,-0.0414
16,ATAGACAG,0.0692
17,TACGTAGA,0.051
18,ACAGCTCA,-0.0909
19,AAGTATTC,0.0408
20,AGAGTGCT,0.0363
21,CTCGGTTC,-0.0565
22,ATCATAAT,0.144
23,CGGCGTTA,-0.177
24,CAGCTCAA,-0.0276

row,Sequence,PBM E-score
1,ATTTGGCC,0.108
2,AACGCCTT,-0.118
3,CGTCGCAA,0.0357
4,CGTCGGCA,0.148
5,CCCTGCGA,-0.157
6,CCTACCAA,0.0782
7,AGGGTGCA,0.0699
8,CGGCGTGA,-0.0286
9,CTTTCTGA,0.0767
10,AACTTGAA,0.109
11,GCACAGGA,0.076
12,GTCAAAGA,-0.157
13,AATCCGCT,-0.0112
14,AAATCACC,0.0779
15,CAAGTATC,0.00476
16,ACATCGCA,-0.134
17,CATCAGGC,0.0343
18,GCTTCGTA,-0.0537
19,CCCCCATA,-0.331
20,GCCCGTTA,-0.142
21,ATATGCTG,0.00054
22,CAAGATGC,0.249
23,GCAATACA,0.291
24,AGTCACTA,0.0232

row,Sequence,PBM E-score
1,ACGAGGTG,0.0508
2,ATAAAATC,0.0813
3,ATCGTTAC,0.0243
4,GCCCGAGC,-0.0893
5,ACAATGTA,0.0306
6,TCACATAA,0.162
7,ATAGGTTG,-0.0699
8,ACCACGCT,-0.176
9,GAGAGTAA,0.137
10,AAAACAAG,-0.00051
11,CGTGCGAG,0.0963
12,CGCATTAG,0.106
13,CTTACGAC,-0.0445
14,AAAGTCAG,0.0103
15,ACGCGTAC,0.215
16,GATACGCC,0.0938
17,CAGTGTGG,-0.15
18,AGCACGTA,-0.0687
19,GCCCCTAA,-0.125
20,CAAACTGC,-0.0471
21,CAGCCTAC,-0.0684
22,CGCGGGCA,0.228
23,CCTCGCCG,-0.151
24,CTCTACGC,-0.109

# Nothing new here: an excerpt of the list.
row,Sequence,PBM E-score
7,CCTCCTAA,-0.104
8,ATAAAAAC,0.23
9,CACCAGGC,-0.0805
10,GATAGACC,0.0367
11,TAAGTAGA,0.0408
12,TATAAGGA,0.0915
13,CACCTAAG,0.045
14,GGATATAC,0.0894
15,CATTCCGC,-0.0414
16,ATAGACAG,0.0692
17,TACGTAGA,0.051
18,ACAGCTCA,-0.0909
19,AAGTATTC,0.0408
20,AGAGTGCT,0.0363
21,CTCGGTTC,-0.0565
22,ATCATAAT,0.144
23,CGGCGTTA,-0.177
24,CAGCTCAA,-0.0276
1,ATTTGGCC,0.108

# (further entries)

row,Sequence,PBM E-score
1,AAGCGTAT,-0.0193
2,AATTAACT,0.0573
3,AAGCGCTA,0.107
4,ACGGGCGC,0.0801
5,CAGTCCAG,-0.0544
6,AGATAAAC,0.123
7,CGTAAGCA,0.232
8,CTTGGGGC,-0.162
9,CGGGCCAG,-0.0841
10,GGCCCAAA,-0.0127
11,CAGCGCAA,-0.0285
12,AAGACATG,-0.208
13,GAATGTGC,-0.0206
14,ATCATGAA,0.177
15,ACTGGACC,-0.049
16,AGGTCGGG,-0.144
17,GCAGAAGC,-0.0325
18,GACGCTCA,-0.024
19,ACAGTTAT,0.00233
20,AGCTAGCA,-0.0255
21,AGATGTTG,-0.0315
22,ATGAGGGA,-0.218
